The list shows a part of the results.
Experiments:
Experiment in all cases: log2 fold change, soluble protein after heating vs DMSO (PISA); higher = thermal stabilisation; K562 lysate, 10 uM; active = over 0.2 and 3.5 SD of the protein, either way, in both replicates (recomputed)
[1] = compound: C#Cc1cccc(Nc2ncnc3cc(OCCOC)c(OCCOC)cc23)c1 [erlotinib]
Method in brief: (§1)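 K562 pellets were dounce-homogenised in PBS pH 7.4 with 1 mM MgCl2, and the crude extract at 1 mg/mL protein was treated with 10 μM compound for 30 min. Aliquots were heated for 3 min across 48°C-58°C, pooled, and brought to 0.5% NP-40 at 4°C; soluble protein was the supernatant after 21,000xg for 90 min. Soluble protein was quantified by TMTpro 16plex LC-MS/MS with channel sums equalised, and reported as log2 fold change in thermal stability against DMSO controls, with values from duplicates.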

Chains of the proteins cited; added tags and fusions are not shown. Lines headed by an entry give the natural chain unless they say otherwise; changes in a name come on top.
UniProt O95989: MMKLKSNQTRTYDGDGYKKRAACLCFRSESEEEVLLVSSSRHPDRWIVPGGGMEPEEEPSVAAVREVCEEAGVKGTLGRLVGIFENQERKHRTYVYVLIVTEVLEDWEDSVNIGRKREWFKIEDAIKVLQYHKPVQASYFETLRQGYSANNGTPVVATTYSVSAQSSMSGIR
UniProt Q9NPE3: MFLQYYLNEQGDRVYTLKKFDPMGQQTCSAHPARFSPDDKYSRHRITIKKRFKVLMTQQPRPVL
UniProt O75052: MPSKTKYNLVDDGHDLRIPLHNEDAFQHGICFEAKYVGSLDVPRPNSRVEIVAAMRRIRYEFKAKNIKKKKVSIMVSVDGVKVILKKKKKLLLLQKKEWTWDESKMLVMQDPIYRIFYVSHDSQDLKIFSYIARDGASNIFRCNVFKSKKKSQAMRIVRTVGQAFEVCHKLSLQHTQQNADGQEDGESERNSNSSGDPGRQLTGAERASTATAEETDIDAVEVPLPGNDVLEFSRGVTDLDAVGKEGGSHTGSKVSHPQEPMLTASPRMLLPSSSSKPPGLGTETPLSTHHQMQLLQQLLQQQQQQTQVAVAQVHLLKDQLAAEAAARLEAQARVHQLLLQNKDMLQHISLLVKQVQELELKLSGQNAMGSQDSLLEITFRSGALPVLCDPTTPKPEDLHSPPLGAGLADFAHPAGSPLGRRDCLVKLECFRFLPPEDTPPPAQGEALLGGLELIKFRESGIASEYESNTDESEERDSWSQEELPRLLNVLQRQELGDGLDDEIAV
UniProt Q6ZVK8: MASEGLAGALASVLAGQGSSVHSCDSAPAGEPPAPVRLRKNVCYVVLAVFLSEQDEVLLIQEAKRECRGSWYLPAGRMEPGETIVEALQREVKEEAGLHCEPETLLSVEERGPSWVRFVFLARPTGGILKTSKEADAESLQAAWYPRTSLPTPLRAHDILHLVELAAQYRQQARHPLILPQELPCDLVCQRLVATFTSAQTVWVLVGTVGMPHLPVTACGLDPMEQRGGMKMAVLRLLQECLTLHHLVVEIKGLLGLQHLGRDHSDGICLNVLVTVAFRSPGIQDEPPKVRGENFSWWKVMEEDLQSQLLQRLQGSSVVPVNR
UniProt Q969T7: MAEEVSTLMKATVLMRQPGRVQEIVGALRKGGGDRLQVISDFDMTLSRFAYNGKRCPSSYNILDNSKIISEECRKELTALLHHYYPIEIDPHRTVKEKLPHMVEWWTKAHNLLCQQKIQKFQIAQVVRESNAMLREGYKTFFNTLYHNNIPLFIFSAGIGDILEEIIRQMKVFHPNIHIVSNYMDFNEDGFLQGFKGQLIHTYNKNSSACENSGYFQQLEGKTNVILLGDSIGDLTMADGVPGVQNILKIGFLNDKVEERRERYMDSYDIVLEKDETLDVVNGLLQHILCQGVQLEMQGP
UniProt P29474: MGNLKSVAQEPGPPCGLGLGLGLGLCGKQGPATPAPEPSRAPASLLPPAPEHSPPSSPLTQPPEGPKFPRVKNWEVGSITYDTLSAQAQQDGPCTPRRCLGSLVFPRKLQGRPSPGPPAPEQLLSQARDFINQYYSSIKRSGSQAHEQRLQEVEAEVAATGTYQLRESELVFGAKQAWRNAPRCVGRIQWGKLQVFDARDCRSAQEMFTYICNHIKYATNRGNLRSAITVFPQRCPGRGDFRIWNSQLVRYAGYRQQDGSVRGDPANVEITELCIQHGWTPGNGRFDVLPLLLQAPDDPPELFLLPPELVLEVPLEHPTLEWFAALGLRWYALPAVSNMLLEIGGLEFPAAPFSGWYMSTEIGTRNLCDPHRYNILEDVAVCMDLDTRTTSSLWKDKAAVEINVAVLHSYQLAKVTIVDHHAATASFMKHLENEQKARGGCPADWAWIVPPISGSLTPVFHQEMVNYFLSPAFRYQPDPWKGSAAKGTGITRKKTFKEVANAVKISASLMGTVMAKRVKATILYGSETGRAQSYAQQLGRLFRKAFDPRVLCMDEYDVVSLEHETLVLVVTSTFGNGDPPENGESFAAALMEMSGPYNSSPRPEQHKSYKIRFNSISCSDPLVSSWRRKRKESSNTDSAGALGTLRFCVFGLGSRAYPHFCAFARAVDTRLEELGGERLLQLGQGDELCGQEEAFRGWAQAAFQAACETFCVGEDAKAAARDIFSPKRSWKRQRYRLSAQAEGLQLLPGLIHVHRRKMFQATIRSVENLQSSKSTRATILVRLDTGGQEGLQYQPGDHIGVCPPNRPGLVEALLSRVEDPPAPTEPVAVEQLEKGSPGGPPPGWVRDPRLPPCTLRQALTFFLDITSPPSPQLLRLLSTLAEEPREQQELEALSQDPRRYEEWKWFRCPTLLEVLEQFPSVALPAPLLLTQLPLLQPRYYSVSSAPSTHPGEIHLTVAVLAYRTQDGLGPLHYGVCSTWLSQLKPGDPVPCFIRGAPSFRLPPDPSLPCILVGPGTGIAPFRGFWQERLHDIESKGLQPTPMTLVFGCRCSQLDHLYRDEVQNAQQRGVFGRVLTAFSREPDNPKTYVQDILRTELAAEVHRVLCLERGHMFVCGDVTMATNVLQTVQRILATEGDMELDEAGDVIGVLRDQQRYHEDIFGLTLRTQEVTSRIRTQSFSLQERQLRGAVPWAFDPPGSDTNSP
UniProt Q9H0G5: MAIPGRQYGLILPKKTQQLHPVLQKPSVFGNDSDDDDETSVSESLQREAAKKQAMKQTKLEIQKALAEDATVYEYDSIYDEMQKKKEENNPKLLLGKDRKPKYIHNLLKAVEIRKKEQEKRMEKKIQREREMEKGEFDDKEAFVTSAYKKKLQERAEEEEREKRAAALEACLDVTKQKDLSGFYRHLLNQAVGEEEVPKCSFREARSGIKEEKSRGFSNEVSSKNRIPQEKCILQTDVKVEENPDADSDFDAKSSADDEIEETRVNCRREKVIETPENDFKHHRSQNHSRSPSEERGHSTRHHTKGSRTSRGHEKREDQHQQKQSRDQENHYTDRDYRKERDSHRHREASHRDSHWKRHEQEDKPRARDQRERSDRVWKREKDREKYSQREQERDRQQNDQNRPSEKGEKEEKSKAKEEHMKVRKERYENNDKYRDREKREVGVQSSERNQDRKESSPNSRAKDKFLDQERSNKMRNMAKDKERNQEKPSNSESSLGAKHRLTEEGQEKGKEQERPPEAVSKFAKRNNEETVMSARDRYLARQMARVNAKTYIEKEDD
UniProt Q76FK4: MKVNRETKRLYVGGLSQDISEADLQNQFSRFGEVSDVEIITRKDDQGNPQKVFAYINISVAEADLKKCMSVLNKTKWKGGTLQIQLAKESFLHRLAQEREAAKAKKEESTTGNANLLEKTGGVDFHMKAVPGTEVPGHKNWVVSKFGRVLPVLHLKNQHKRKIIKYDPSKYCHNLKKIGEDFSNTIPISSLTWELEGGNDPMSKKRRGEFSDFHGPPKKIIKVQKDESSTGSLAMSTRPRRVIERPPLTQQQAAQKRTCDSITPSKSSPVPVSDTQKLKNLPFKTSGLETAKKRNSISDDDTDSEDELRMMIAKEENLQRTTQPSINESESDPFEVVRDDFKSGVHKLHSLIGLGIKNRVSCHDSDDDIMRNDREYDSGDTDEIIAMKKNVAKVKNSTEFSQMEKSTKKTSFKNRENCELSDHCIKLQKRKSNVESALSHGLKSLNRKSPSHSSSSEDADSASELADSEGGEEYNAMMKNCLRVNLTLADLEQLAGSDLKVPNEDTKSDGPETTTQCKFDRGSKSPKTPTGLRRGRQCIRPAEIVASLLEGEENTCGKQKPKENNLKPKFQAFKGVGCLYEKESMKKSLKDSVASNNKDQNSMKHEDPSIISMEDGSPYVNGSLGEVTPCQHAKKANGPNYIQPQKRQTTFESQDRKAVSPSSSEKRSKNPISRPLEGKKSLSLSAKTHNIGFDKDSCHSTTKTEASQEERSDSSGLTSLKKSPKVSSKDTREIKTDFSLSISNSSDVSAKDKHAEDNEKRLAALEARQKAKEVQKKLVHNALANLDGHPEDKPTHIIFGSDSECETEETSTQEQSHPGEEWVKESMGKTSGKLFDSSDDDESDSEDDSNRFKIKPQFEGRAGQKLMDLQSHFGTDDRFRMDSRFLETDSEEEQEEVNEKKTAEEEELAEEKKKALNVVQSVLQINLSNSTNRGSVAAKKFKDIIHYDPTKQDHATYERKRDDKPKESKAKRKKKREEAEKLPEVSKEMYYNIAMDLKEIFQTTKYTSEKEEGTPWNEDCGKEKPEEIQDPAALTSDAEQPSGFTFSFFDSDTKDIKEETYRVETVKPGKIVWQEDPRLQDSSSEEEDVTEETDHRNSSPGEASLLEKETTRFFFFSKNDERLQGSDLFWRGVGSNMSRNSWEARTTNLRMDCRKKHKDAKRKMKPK
UniProt Q08J23, whole entry, looked up: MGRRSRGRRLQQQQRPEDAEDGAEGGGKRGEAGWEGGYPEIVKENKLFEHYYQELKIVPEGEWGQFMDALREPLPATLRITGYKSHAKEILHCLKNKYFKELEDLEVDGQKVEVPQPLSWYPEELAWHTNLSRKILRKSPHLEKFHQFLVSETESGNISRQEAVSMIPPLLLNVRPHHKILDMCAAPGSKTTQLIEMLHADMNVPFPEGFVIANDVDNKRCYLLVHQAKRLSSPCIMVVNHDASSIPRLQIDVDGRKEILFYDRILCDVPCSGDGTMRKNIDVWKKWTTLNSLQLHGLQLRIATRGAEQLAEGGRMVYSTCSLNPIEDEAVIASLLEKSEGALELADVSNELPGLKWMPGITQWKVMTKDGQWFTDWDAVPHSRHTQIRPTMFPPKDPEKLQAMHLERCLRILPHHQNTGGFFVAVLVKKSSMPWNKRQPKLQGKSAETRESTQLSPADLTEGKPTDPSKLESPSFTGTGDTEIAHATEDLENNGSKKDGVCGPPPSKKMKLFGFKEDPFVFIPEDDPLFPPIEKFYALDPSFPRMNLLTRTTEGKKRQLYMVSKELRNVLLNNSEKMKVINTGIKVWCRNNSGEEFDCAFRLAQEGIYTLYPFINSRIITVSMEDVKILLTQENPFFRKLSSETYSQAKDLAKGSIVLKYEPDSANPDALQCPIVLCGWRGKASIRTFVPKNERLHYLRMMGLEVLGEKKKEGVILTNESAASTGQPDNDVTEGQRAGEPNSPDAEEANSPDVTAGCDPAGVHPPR
UniProt Q8TCD5: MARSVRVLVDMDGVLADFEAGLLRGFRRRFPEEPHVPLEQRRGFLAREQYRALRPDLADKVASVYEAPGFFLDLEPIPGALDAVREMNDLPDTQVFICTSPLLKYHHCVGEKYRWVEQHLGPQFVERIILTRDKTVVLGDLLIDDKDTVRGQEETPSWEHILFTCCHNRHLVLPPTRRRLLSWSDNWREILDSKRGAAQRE
UniProt O60361, whole entry, looked up: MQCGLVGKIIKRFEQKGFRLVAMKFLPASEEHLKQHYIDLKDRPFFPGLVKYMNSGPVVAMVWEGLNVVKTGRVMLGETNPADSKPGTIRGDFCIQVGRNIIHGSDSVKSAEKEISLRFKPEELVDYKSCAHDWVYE

[2] = compound: C/C(=N\NC(=O)C1=CC(=CC=C1)S(=O)(=O)N2CCOCC2)/C3=C(C=CC(=C3)Cl)O
Method in brief: as §1

[3] = compound: C1=CC(=CC=C1C2=NC3=C(N2)C=C(C=C3)C(=O)N)OC4=CC=C(C=C4)Cl
Method in brief: as §1

[4] = compound: C1=CC2=C(C=CC(=C2)/C=C\3/C(=O)NC(=NCC4=CC=CS4)S3)N=C1
Method in brief: as §1

[5] = compound: C1=CC2=NC=CN=C2C=C1/C=C/3\C(=O)NC(=O)S3
Method in brief: as §1

[6] = compound: C1=CC=C(C=C1)C2=NC(=C(N2)C3=CC=NC=C3)C4=CC(=C(C=C4)Cl)O
Method in brief: as §1

[7] = compound: C1=CC=C2C(=C1)C3=NNC4=CC=CC(=C43)C2=O
Method in brief: as §1

[8] = compound: C1CCN(C1)C(=O)NC2=CC=CC(=C2)NC3=NC=C(C(=N3)NCCC4=CN=CN4)Br
Method in brief: as §1

[9] = compound: C1CN(CCC1(CC2=CC=C(C=C2)Cl)N)C3=NC=NC4=C3C=CN4
Method in brief: as §1

[10] = compound: C1COCCN1CCN2C3=CC=CC=C3N=C2NC(=O)C4=CC(=CC=C4)[N+](=O)[O-] [IRAK-1-4 Inhibitor I]
Method in brief: as §1

[11] = compound: C=CC(=O)N1CCC[C@@H](n2nc(-c3ccc(Oc4ccccc4)cc3)c3c(N)ncnc32)C1 [ibrutinib]
Method in brief: as §1

[12] = compound: CC(=O)c1cnc2ccc(-c3cc(Cl)c(O)c(Cl)c3)nc2c1N[C@H]1CC[C@H](CN(C)C)CC1
Method in brief: as §1

[13] = compound: CC(C)(C)Cn1c(N)nc2ccc(-c3[nH]c(C(C)(C)C)nc3-c3ccc(F)cc3)nc21 [ralimetinib]
Method in brief: as §1

[14] = compound: CC(C)(O)CC(=O)NCCn1ccc2ncnc(Nc3ccc(Oc4cccc(C(F)(F)F)c4)c(Cl)c3)c21
Method in brief: as §1

[15] = compound: CC(C)C1=C2N=C(C=C(N2N=C1)NCC3=CC=CC=C3)NCCCCCCN
Method in brief: as §1

[16] = compound: CC1=C(C(CC(=O)N1)C2=CC=C(C=C2)C(F)(F)F)C(=O)NC3=C(C=C4C(=C3)C=NN4)F
Method in brief: as §1

[17] = compound: CC1=C(C2=C(C=C1)C(=O)C3=CC=CC=C3N2CCCN)C
Method in brief: as §1

[18] = compound: CC1=C(C=C(C=C1)NC(=O)C2=CC(=CC=C2)C(C)(C)C#N)NC3=CC4=C(C=C3)N=CN(C4=O)C
Method in brief: as §1

[19] = compound: CC1=C(C=C(C=C1)NC(=O)C2=CC(=CC=C2)N(C)C)NC(=O)C3=CC=C(C=C3)O
Method in brief: as §1

[20] = compound: CC1=CC=C(C=C1)SC2=C3C=C(SC3=CN=C2)C(=O)N
Method in brief: as §1

Measured: log2 fold change

NUDT1 (UniProt P36639)
inactive: [1] 0.019 | [2] -0.028 | [3] 0.026 | [4] 0.005 | [5] -0.051 | [6] -0.014 | [7] 0.015 | [8] -0.009 | [9] 0.031 | [10] 0.005 | [11] 0.083 | [12] 0.003 | [13] 0.158 | [14] -0.091 | [15] -0.009 | [16] -0.015 | [17] 0.008 | [18] 0.008 | [19] -0.009 | [20] -0.054

NUDT3 (UniProt O95989)
inactive: [1] -0.028 | [2] 0.043 | [3] -0.012 | [4] -0.009 | [5] -0.03 | [6] -0.026 | [7] 0.03 | [8] -0.019 | [9] -0.012 | [10] -0.033 | [11] 0.088 | [12] 0.035 | [13] 0.072 | [14] 0.035 | [15] -0.037 | [16] -0.002 | [17] -0.005 | [18] -0.01 | [19] -0.007 | [20] -0.007

NOP10 (UniProt Q9NPE3)
inactive: [1] 0.107 | [2] -0.01 | [3] -0.038 | [4] -0.095 | [5] 0.099 | [6] 0.008 | [7] -0.225 | [8] 0.083 | [9] 0.032 | [10] -0.035 | [11] 0 | [12] 0.036 | [13] 0.021 | [14] -0.032 | [15] -0.165 | [16] 0.027 | [17] -0.018 | [18] -0.047 | [19] -0.043 | [20] -0.007

NOS1AP (UniProt O75052)
inactive: [1] -0.044 | [2] -0.258 | [3] -0.129 | [4] -0.052 | [5] -0.047 | [6] -0.071 | [7] -0.435 | [8] -0.025 | [9] -0.085 | [10] 0.101 | [11] -0.111 | [12] 0.07 | [13] 0.14 | [14] -0.049 | [15] -0.099 | [16] -0.238 | [18] 0.089 | [19] 0.05 | [20] -0.1

NUDT18 (UniProt Q6ZVK8)
inactive: [1] -0.042 | [2] 0.135 | [3] 0.003 | [4] 0.039 | [6] 0 | [7] -0.109 | [8] 0.143 | [9] -0.074 | [10] 0.392 | [13] 0.133 | [14] -0.2 | [15] -0.25 | [18] 0.007 | [19] -0.239

NT5C3B (UniProt Q969T7)
inactive: [1] 0.071 | [2] 0.008 | [3] -0.007 | [4] -0.006 | [5] -0.042 | [6] 0.034 | [7] 0.08 | [8] -0.006 | [9] 0.076 | [10] 0.003 | [11] 0.08 | [12] -0.004 | [13] 0.04 | [14] -0.014 | [15] 0.058 | [16] -0.036 | [17] 0.023 | [18] 0.057 | [19] 0.004 | [20] -0.009

NOS3 (UniProt P29474)
inactive: [1] 0.009 | [2] -0.048 | [3] -0.023 | [4] -0.156 | [7] 0.034 | [15] -0.023 | [16] 0.075

Fetched one by one from the list above (two):
NUDT1 (UniProt P36639)
inactive: [1] 0.019 | [2] -0.028 | [3] 0.026 | [4] 0.005 | [5] -0.051 | [6] -0.014 | [7] 0.015 | [8] -0.009 | [9] 0.031 | [10] 0.005 | [11] 0.083 | [12] 0.003 | [13] 0.158 | [14] -0.091 | [15] -0.009 | [16] -0.015 | [17] 0.008 | [18] 0.008 | [19] -0.009 | [20] -0.054

NOS3 (UniProt P29474)
inactive: [1] 0.009 | [2] -0.048 | [3] -0.023 | [4] -0.156 | [7] 0.034 | [15] -0.023 | [16] 0.075

Carrying on.

NSRP1 (UniProt Q9H0G5)
inactive: [1] -0.021 | [2] -0.04 | [3] -0.006 | [4] 0.02 | [5] -0.021 | [6] 0.028 | [7] 0.027 | [8] -0.01 | [9] -0.003 | [10] 0.012 | [11] 0.075 | [12] -0.005 | [13] -0.025 | [14] -0.014 | [15] 0.002 | [16] 0.005 | [17] -0.021 | [18] 0.011 | [19] 0.007 | [20] -0.001

NOL8 (UniProt Q76FK4)
inactive: [1] 0.08 | [2] 0.11 | [3] -0.025 | [4] 0.16 | [6] -0.045 | [7] 0.035 | [10] 0.088 | [12] 0.051 | [13] 0.015 | [14] -0.128 | [15] -0.023 | [17] -0.041 | [18] 0.069 | [19] 0.157 | [20] 0.03

NSUN2 (UniProt Q08J23)
inactive: [1] 0.004 | [2] 0.04 | [3] -0.018 | [4] 0.006 | [5] 0.004 | [6] -0.006 | [7] -0.016 | [8] 0.033 | [9] -0.018 | [10] -0.002 | [11] 0.014 | [12] 0.011 | [13] 0.023 | [14] 0.015 | [15] 0.006 | [16] 0.008 | [17] 0.006 | [18] -0.035 | [19] 0.033 | [20] 0.017

NT5C (UniProt Q8TCD5)
inactive: [1] -0.059 | [2] -0.001 | [3] 0.008 | [4] 0.008 | [5] 0.044 | [6] -0.016 | [7] 0.003 | [8] 0.014 | [9] -0.01 | [10] 0.004 | [11] -0.059 | [12] 0.005 | [13] -0.012 | [14] 0.035 | [15] -0.036 | [16] 0.048 | [17] -0.001 | [18] 0.006 | [19] -0.002 | [20] -0.038

NME2P1 (UniProt O60361)
inactive: [1] 0.007 | [2] -0.112 | [3] -0.006 | [4] -0.127 | [5] -0.037 | [6] -0.036 | [7] -0.108 | [10] 0.073 | [11] 0.009 | [12] -0.007 | [13] -0.019 | [14] -0.199 | [15] 0.037 | [16] 0.004 | [17] -0.038 | [18] -0.031 | [19] 0.154 | [20] -0.112

Reference: the supplement of paper PMC10849652
